The values below are quoted from earlier work in patent publication US9284541B2, “Methods and compositions for protein labeling using lipoic acid ligases” (Massachusetts Institute of Technology, priority 2007, dated 2016).

Amino acid sequences for entries named in this document (tags omitted). Residues count along the entry.
UniProt P32099, 2-338 limits assumed: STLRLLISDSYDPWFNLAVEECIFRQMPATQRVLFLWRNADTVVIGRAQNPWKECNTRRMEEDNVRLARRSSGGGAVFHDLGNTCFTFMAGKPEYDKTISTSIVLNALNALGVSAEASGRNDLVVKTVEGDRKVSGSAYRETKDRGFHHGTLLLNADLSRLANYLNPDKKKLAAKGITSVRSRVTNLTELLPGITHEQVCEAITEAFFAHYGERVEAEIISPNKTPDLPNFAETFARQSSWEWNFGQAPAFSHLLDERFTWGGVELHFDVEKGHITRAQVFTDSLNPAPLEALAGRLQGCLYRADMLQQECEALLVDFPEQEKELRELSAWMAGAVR

Broadly, the Km is the substrate concentration at which the rate is half of its maximum.

A number of entries come with more than one value. This is not the full list of results. An entry can have further records. The records of an entry differ, and nothing given here explains why; they may come from other doses, times, organisms or constructs than stated.

The data set addresses E. coli LplA (Escherichia coli, UniProt P32099). Conditions: read-out: reported Km for lipoic acid; two reported values.

Consider `O=C(O)CCCC[C@@H]1CCSS1`, for which the Km was 1.7 µM and 4.5 µM.
